This is one part of the list.

The chains behind the UniProt entries cited, without tags or fusion partners. Where a name states a change or a piece, a line headed by the entry shows the natural chain unless it says otherwise.
UniProt Q15836, whole entry, looked up: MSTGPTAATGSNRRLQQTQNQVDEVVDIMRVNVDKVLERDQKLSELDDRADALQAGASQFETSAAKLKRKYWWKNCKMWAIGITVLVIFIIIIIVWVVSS
UniProt O14957: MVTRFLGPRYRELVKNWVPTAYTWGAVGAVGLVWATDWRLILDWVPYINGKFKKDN
UniProt Q9H1J1: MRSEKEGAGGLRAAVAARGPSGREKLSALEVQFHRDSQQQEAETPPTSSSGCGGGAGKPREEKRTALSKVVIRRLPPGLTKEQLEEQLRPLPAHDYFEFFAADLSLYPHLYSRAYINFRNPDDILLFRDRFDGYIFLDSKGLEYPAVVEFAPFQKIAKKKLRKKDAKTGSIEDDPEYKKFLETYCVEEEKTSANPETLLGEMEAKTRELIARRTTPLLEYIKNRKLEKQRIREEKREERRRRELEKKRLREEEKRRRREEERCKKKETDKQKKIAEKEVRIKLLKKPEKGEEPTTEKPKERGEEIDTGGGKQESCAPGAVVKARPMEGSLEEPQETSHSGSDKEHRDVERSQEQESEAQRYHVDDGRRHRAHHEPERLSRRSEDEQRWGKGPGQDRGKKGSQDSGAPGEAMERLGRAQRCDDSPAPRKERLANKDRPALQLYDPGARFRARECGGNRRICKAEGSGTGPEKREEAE
UniProt Q68DE3: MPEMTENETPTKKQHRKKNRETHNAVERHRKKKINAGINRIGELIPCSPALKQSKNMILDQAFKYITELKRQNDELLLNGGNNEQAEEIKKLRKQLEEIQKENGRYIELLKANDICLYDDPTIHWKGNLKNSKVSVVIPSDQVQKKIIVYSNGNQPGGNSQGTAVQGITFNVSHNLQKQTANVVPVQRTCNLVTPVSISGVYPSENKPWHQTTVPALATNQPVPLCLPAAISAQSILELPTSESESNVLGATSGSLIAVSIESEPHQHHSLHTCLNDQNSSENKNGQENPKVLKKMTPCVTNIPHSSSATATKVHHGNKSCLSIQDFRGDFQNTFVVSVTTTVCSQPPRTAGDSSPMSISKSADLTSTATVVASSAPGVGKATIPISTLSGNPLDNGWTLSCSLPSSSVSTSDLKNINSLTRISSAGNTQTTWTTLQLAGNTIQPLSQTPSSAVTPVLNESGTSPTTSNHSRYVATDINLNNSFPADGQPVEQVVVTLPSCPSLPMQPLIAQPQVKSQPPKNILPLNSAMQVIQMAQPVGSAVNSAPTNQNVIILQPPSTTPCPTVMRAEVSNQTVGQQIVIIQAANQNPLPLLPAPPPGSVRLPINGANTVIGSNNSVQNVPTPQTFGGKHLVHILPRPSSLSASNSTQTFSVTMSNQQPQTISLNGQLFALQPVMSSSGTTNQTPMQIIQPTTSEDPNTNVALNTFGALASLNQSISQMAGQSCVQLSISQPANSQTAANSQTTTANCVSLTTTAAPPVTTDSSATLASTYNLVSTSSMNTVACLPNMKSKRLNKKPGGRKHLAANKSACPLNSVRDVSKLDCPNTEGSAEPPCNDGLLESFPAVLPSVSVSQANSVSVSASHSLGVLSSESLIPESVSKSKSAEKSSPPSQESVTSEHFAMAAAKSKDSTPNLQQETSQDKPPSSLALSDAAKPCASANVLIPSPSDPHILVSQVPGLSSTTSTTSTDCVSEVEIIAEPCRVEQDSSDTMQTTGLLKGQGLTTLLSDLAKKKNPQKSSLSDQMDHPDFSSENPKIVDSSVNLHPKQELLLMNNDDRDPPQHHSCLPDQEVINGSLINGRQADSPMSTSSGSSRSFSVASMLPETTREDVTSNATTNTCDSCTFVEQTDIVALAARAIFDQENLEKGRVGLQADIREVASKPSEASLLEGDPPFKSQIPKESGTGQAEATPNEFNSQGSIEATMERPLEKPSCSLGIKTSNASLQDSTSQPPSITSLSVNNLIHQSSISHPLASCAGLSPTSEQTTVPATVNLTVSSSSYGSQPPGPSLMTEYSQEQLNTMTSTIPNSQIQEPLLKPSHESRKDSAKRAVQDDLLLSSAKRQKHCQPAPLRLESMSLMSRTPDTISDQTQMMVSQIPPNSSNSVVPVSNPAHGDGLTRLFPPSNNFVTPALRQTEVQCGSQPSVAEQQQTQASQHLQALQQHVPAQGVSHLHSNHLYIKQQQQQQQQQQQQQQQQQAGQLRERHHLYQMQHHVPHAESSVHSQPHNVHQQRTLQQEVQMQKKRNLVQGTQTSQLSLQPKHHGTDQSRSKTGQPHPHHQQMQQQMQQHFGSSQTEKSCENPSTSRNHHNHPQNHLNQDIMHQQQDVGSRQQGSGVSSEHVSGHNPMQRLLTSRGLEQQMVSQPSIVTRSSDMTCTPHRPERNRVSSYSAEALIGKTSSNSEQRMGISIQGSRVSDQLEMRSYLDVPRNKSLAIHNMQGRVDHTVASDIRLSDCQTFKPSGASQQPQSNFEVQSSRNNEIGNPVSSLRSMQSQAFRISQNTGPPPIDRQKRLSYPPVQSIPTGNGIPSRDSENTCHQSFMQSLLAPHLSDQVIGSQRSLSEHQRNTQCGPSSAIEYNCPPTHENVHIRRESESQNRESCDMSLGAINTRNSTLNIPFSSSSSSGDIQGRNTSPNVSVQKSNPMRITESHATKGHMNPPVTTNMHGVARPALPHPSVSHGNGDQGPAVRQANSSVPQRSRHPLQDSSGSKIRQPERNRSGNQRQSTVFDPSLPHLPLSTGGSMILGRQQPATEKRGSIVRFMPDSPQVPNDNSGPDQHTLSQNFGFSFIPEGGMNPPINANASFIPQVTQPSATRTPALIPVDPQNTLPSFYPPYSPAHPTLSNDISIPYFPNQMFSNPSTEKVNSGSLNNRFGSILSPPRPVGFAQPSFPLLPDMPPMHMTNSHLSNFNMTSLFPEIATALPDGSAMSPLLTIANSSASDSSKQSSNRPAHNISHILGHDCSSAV
UniProt Q13107: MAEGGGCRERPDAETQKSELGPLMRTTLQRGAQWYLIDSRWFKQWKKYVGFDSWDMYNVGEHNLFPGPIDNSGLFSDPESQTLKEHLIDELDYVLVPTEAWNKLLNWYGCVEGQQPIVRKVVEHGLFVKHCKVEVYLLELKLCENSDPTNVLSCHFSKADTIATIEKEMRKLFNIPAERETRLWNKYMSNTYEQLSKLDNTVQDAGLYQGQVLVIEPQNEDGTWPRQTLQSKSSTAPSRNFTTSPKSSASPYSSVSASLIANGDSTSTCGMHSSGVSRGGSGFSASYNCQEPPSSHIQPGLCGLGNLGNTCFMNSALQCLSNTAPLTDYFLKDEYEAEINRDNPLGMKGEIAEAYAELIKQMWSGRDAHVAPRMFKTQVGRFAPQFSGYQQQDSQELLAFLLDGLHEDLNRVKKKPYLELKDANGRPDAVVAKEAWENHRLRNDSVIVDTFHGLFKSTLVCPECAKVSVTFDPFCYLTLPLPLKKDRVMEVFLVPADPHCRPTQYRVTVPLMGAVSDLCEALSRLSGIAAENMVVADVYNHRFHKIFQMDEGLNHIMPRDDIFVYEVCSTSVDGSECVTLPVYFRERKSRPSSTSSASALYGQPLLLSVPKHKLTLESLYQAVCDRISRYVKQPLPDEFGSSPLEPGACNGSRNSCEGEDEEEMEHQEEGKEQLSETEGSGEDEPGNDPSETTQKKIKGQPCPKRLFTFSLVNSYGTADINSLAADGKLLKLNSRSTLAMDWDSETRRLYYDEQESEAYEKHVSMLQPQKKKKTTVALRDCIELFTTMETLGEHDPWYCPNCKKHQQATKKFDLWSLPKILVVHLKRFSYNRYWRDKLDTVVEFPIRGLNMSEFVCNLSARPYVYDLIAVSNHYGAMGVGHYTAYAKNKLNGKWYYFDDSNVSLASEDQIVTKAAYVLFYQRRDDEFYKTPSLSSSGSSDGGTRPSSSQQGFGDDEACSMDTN
UniProt Q9Y5T5, whole entry, looked up: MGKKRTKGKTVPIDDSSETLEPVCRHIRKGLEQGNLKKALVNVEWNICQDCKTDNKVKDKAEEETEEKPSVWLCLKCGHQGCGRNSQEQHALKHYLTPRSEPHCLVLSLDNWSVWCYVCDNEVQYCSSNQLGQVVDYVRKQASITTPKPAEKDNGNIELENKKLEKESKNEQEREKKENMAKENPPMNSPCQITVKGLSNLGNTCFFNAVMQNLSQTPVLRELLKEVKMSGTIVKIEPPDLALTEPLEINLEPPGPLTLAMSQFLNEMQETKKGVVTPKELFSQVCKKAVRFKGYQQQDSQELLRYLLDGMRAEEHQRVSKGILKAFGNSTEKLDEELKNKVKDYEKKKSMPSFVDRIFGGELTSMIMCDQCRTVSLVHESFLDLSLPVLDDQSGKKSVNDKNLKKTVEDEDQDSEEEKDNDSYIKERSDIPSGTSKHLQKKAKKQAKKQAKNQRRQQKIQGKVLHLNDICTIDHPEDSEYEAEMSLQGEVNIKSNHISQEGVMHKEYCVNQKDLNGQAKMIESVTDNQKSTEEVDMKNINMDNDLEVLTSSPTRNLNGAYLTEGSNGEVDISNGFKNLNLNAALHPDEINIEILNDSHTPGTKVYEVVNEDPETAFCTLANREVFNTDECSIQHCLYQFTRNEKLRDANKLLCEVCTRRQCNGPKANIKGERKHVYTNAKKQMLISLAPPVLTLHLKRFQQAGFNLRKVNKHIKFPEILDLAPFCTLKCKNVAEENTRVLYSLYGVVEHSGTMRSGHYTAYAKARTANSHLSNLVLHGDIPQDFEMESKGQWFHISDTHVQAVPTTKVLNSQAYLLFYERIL
UniProt P62068, whole entry, looked up: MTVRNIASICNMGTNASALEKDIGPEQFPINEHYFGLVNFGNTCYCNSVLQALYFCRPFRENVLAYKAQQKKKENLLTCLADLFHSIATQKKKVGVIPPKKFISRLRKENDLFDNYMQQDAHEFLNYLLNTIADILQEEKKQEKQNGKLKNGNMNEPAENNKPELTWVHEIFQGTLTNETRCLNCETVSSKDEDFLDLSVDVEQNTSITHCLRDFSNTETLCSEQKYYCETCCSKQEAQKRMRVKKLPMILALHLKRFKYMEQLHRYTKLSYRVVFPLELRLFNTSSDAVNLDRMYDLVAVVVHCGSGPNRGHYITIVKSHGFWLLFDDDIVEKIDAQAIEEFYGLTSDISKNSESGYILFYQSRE
UniProt Q9BZM5, whole entry, looked up: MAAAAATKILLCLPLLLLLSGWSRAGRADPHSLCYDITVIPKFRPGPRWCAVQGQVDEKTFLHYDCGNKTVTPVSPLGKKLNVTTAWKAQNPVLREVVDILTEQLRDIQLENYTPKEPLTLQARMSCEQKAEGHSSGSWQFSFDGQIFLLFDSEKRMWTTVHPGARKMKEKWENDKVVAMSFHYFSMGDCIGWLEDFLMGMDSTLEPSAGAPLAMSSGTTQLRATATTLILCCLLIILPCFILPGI
UniProt O75317, whole entry, looked up: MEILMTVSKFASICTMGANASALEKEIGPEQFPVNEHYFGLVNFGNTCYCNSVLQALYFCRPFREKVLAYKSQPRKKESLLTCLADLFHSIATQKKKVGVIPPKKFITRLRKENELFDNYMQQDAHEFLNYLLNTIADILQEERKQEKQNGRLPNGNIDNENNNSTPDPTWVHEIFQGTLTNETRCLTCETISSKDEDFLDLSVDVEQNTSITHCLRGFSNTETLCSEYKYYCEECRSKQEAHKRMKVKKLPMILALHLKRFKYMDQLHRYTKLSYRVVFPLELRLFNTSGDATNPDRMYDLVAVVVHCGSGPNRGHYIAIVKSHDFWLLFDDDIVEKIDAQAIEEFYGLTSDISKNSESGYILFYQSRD
UniProt O00124: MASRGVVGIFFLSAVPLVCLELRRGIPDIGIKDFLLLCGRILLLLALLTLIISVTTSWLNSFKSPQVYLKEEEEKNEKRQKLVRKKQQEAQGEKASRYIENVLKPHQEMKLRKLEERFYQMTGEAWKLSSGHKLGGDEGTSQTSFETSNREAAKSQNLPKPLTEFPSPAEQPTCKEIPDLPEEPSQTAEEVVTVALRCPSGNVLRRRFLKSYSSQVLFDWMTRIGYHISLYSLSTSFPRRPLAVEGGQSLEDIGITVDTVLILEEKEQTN
UniProt A6NNY8: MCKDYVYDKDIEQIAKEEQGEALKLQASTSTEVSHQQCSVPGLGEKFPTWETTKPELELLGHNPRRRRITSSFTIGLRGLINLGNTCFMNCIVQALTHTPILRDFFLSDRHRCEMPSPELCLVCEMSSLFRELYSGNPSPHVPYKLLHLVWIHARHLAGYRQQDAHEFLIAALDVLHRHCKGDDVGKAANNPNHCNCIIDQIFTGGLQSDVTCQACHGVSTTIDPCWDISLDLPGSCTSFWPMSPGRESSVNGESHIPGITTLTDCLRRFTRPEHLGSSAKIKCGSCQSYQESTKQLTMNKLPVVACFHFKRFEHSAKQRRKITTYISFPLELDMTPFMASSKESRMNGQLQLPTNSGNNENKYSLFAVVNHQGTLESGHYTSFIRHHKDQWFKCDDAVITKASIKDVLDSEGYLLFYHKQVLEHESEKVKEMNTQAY
UniProt Q9BZM6: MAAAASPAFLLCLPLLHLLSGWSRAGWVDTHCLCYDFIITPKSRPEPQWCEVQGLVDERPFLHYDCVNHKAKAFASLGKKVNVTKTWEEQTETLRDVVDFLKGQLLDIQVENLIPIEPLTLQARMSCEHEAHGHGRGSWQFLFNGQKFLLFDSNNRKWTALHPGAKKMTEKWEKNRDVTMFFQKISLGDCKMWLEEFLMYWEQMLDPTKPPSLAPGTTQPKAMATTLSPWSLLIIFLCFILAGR

Here are results for 24 targets from the supplement of paper PMC10849652.

Compound in the first assay: Cc1ccc(-n2nc(C(C)(C)C)cc2NC(=O)Nc2ccc(OCCN3CCOCC3)c3ccccc23)cc1 [doramapimod]
The assay is described as follows: log2 fold change, soluble protein after heating vs DMSO (PISA); higher = thermal stabilisation; K562 cells, 10 uM, 30 min; active = over 0.2 and 3.5 SD of the protein, either way, in both replicates (recomputed). Put shortly: (§1)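 K562 cells at 2×10^6 cells/mL were given 10 μM compound for 30 min. Aliquots then went through 3 min of heating across 48°C-58°C, were pooled, and were extracted in PBS with 0.5% NP-40 at 4°C, and the supernatant after 21,000xg for 90 min was quantified by TMTpro 16plex LC-MS/MS with channel sums equalised. Thermal stability relative to control samples, from duplicates, is given as log2 fold change.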
As for VAMP3 (UniProt Q15836), the log2 fold change is inactive: 0.023. The same measure, in the same setting: then UQCR11 (UniProt O14957), with inactive: -0.056; and UPP1 (UniProt Q16831), with inactive: -0.116. Same read-out and setting: then UGP2 (UniProt C9JWG0), with inactive: 0.283; and UTP18 (UniProt Q9Y5J1), with inactive: 0.281; and UPF3A (UniProt Q9H1J1), with inactive: 0.133. For the target UBN2 (UniProt Q6ZU65), the log2 fold change is inactive: -0.148. The same measure, in the same setting: then UMAD1 (UniProt C9J7I0), with inactive: 0.031. On to UBQLN3 (UniProt Q9H347), for which the log2 fold change is inactive: -0.063.

Take USF3 (UniProt Q68DE3): the log2 fold change was inactive: -0.057. The same measure, in the same setting: then USP4 (UniProt Q13107), with inactive: 0.465; and USP16 (UniProt Q9Y5T5), with inactive: 0.247. In the case of URB2 (UniProt Q14146), the log2 fold change was inactive: -0.172. On the same count and under the same terms, then ULK3 isoform 4 (UniProt Q6PHR2), with inactive: -0.149; and USP46 (UniProt P62068), with inactive: 0.112; and UTP14C (UniProt Q5TAP6), with inactive: -0.026.

Compound in another assay: Cc1ccc(C(=O)N(CCCN)[C@@H](c2nc3cc(Cl)ccc3c(=O)n2Cc2ccccc2)C(C)C)cc1 [ispinesib]
The description is as above. In outline: as §1
As to VAV1 (UniProt P15498), the log2 fold change was inactive: 0.049. Still for that read-out and setting: next, ULBP2 (UniProt Q9BZM5): inactive: -0.194; UQCR11 (UniProt O14957): inactive: 0.107.

For the target UTP18 (UniProt Q9Y5J1), the log2 fold change was inactive: -0.031. On the same count and under the same terms, next, UMAD1 (UniProt C9J7I0): inactive: 0.235; USP12 (UniProt O75317): inactive: -0.037; UBQLN3 (UniProt Q9H347): inactive: 0.175. On the same count and under the same terms, next, USF3 (UniProt Q68DE3): inactive: -0.219; UBXN8 (UniProt O00124): inactive: -0.193; USP11 (UniProt P51784): inactive: -0.155. The same measure, in the same setting: then USP16 (UniProt Q9Y5T5), with inactive: 0.149; and USP27X (UniProt A6NNY8), with inactive: 0.091; and ULBP1 (UniProt Q9BZM6), with inactive: 0.011. Turning to ULK3 isoform 4 (UniProt Q6PHR2), the log2 fold change is inactive: -0.129. For the target USP33 (UniProt Q8TEY7), the log2 fold change was inactive: -0.023.
